Experimental data: PubChem BioAssay AID743454 (Peter MacCallum Cancer Centre, 2014)

- Aim: 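Knock-downs lowering viability or raising caspase 3/7 activity in vorinostat-treated resistant cells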 (primary screen)
- System: human HCT116-VR colon cancer cells, selected for vorinostat resistance
- Reagents: siRNA pool against human genes, 40 nM siRNA pool
- Timing: vorinostat for 24 h, read-out about 72 h after transfection
- Treatment: vorinostat at 2.5 µM final
- Read-out: 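Cell viability by CellTiter-Fluor and caspase 3/7 activity by luminescence, each scaled to mock wells per plate, duplicates averaged, then robust z-scored over all plates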
- Direction: viability robust z-score: higher = more viable cells than screen typical; caspase robust z-score: higher = more caspase 3/7 activity than screen typical
- Call rule: 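Hits are knock-downs in viability class RV1/RV2 or caspase class CA1/CA2, excluding ones that killed cells in the no-drug cell-count arm; hits then retested with single siRNAs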
The whole screen tested about 18,000 reagents; this is a part drawn at random. In the full data, 450 (2.5%) were called active. 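Single biological run; no consistent viability z cut-off exists, so the class columns, not z-scores, define the calls.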

The first 2 records, ahead of the listing:
SF3B5 | viability hit class = no change; caspase hit class = no change; viability robust z-score = -4.54; caspase robust z-score = 3.07; outcome = inactive
TJAP1 | viability hit class = no change; caspase hit class = no change; viability robust z-score = -1.32; caspase robust z-score = 0.45; outcome = inactive

Main list, from the start:
SF3B5 | viability hit class = no change; caspase hit class = no change; viability robust z-score = -4.54; caspase robust z-score = 3.07; outcome = inactive
TJAP1 | viability hit class = no change; caspase hit class = no change; viability robust z-score = -1.32; caspase robust z-score = 0.45; outcome = inactive
GPRASP2 | viability hit class = no change; caspase hit class = no change; viability robust z-score = -0.33; caspase robust z-score = 0.36; outcome = inactive
TIGD2 | viability hit class = no change; caspase hit class = no change; viability robust z-score = 1.24; caspase robust z-score = -0.32; outcome = inactive
SVOPL | viability hit class = no change; caspase hit class = no change; viability robust z-score = -2.33; caspase robust z-score = -1.21; outcome = inactive
CRIPT | viability hit class = no change; caspase hit class = no change; viability robust z-score = -0.16; caspase robust z-score = -0.42; outcome = inactive
CHRFAM7A | viability hit class = no change; caspase hit class = no change; viability robust z-score = 0.66; caspase robust z-score = -0.72; outcome = inactive
AKAP3 | viability hit class = no change; caspase hit class = no change; viability robust z-score = -0.76; caspase robust z-score = -0.92; outcome = inactive
GPR50 | viability hit class = no change; caspase hit class = no change; viability robust z-score = 0.36; caspase robust z-score = 0.04; outcome = inactive
RPIA | viability hit class = no change; caspase hit class = no change; viability robust z-score = 0.1; caspase robust z-score = -0.64; outcome = inactive
TRMT2B | viability hit class = no change; caspase hit class = no change; viability robust z-score = 1.51; caspase robust z-score = 0.43; outcome = inactive
MIB1 | viability hit class = no change; caspase hit class = no change; viability robust z-score = -0.44; caspase robust z-score = 0.36; outcome = inactive
NAA38 | viability hit class = no change; caspase hit class = no change; viability robust z-score = 0.02; caspase robust z-score = 0.92; outcome = inactive
LEPROTL1 | viability hit class = no change; caspase hit class = no change; viability robust z-score = -1.1; caspase robust z-score = -0.48; outcome = inactive
